Laboratory results reported in article PMC7275032.
No constants are given. Whether binding was seen depends on the method and setting. In cells and extracts the contact can be indirect. These calls come from enrichment with a bait or labelling near it, and not all partners need be listed. For some assays here: No binding means not detected with the bait.

What was measured:
Experiment in all cases: affinity purification with mass spectrometry; proteins HA-epitope tagged at their endogenous loci; soluble N. crassa extract in IP buffer (20 mM HEPES pH 7.4, 150 mM KOAc, 2 mM MgCl2, 1 mM DTT); anti-HA DynaBeads, 1 h at 4 °C; washes with Tween-20
[1] = biological target: T1, SPA-2 (polarisome protein) (N. crassa) (UniProt V5IQM7)
T1 sequence: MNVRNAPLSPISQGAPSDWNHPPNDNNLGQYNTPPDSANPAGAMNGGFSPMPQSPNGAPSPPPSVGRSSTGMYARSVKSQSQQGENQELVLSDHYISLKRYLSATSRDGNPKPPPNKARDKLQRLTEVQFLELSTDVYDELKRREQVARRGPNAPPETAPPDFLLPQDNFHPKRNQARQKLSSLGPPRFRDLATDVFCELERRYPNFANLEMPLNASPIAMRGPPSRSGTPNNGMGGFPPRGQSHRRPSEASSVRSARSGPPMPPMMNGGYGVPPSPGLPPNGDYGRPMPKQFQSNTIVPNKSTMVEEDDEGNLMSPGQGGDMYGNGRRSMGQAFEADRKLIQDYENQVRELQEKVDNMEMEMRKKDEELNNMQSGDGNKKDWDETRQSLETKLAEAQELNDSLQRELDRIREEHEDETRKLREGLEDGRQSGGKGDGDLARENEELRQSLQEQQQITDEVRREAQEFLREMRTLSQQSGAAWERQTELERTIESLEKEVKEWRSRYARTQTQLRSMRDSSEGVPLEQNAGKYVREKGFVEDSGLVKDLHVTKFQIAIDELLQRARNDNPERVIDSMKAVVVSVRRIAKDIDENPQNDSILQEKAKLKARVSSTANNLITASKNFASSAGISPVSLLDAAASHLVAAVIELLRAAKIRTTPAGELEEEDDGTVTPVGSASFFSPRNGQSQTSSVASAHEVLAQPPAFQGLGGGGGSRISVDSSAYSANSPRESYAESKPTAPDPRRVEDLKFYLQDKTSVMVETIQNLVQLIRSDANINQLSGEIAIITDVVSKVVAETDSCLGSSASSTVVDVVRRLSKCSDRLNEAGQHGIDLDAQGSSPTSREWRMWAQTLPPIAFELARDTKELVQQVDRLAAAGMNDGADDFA

[2] = biological target: JANUS-1 (JNS-1) (N. crassa) (UniProt Q1K4U3)
[3] = biological target: myosin V motor (MYO-5) (N. crassa)

For GYP-3 (single N. crassa Msb homolog), the binding [1] was “no binding”.

JANUS-1 (JNS-1) (from UniProt Q1K4U3) was tested, and the binding [1] was “binds”.

With myosin V motor (MYO-5) (N. crassa) the binding [1] was “binds”.

B1: SPA-2 (polarisome protein) (protein, UniProt V5IQM7 1-888)
chain: MNVRNAPLSPISQGAPSDWNHPPNDNNLGQYNTPPDSANPAGAMNGGFSPMPQSPNGAPSPPPSVGRSSTGMYARSVKSQSQQGENQELVLSDHYISLKRYLSATSRDGNPKPPPNKARDKLQRLTEVQFLELSTDVYDELKRREQVARRGPNAPPETAPPDFLLPQDNFHPKRNQARQKLSSLGPPRFRDLATDVFCELERRYPNFANLEMPLNASPIAMRGPPSRSGTPNNGMGGFPPRGQSHRRPSEASSVRSARSGPPMPPMMNGGYGVPPSPGLPPNGDYGRPMPKQFQSNTIVPNKSTMVEEDDEGNLMSPGQGGDMYGNGRRSMGQAFEADRKLIQDYENQVRELQEKVDNMEMEMRKKDEELNNMQSGDGNKKDWDETRQSLETKLAEAQELNDSLQRELDRIREEHEDETRKLREGLEDGRQSGGKGDGDLARENEELRQSLQEQQQITDEVRREAQEFLREMRTLSQQSGAAWERQTELERTIESLEKEVKEWRSRYARTQTQLRSMRDSSEGVPLEQNAGKYVREKGFVEDSGLVKDLHVTKFQIAIDELLQRARNDNPERVIDSMKAVVVSVRRIAKDIDENPQNDSILQEKAKLKARVSSTANNLITASKNFASSAGISPVSLLDAAASHLVAAVIELLRAAKIRTTPAGELEEEDDGTVTPVGSASFFSPRNGQSQTSSVASAHEVLAQPPAFQGLGGGGGSRISVDSSAYSANSPRESYAESKPTAPDPRRVEDLKFYLQDKTSVMVETIQNLVQLIRSDANINQLSGEIAIITDVVSKVVAETDSCLGSSASSTVVDVVRRLSKCSDRLNEAGQHGIDLDAQGSSPTSREWRMWAQTLPPIAFELARDTKELVQQVDRLAAAGMNDGADDFA
In the case of B1, the binding [2] is reported as “binds” and the binding [3] is reported as “binds”.
